Data as given in PubChem BioAssay AID1053208 (Peter MacCallum Cancer Centre, 2014).
Here is one part, drawn at random, of about 17,000 reagents tested. Over the whole deposit, 788 (4.7%) are marked active. 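Calls rest on z-score classes alone; an extra cut-off of viability at most 70% of control was not applied to them.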 Unmarked entries are inactive. Reagents against one gene are numbered here. Not all columns of the deposit are shown.

- Purpose: 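Genes whose silencing cuts survival of bone tumour cells only with doxorubicin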 (primary screen)
- System: mouse osteosarcoma cells, early-passage culture from an engineered mouse model of fibroblastic bone tumour
- Knock-down reagent: siRNA pool against mouse genes, 40 nM
- Duration: about 120 h (48 h before drug, then 72 h with drug)
- Conditions: doxorubicin 100 nM for 72 h, roughly 30-40% inhibitory dose
- Detection: 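Viability read as ATP luminescence after 72 h of 100 nM doxorubicin or none, duplicate wells averaged, scaled to non-targeting siRNA, then expressed as robust z-scores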
- Scale: viability z-score with doxorubicin: higher = more viable cells under doxorubicin; viability z-score without drug: higher = more viable cells with knock-down alone
- Call rule: 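Called active if knock-down leaves viability unchanged without drug (z within -2 to 2) but lowers it with doxorubicin (z at or under -2)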

target	pool no.	combined z-score class	viability z-score with doxorubicin	viability z-score without drug
Loxl4 (lysyl oxidase-like 4)	1	no change with or without drug	0.79	0.84
Cog6 (component of oligomeric golgi complex 6)	1	no change with or without drug	0.56	1.18
Gsg1 (germ cell associated 1)	1	no change with or without drug	0.45	0.67
Ccdc106 (coiled-coil domain containing 106)	1	no change with or without drug	0.9	1.18
Or51af1 (olfactory receptor family 51 subfamily AF member 1)	1	low cell count with doxorubicin only (active)	-3.15	-1.52
Slc25a44	1	no change with or without drug	0.67	0.84
Nxt1 (NTF2-related export protein 1)	1	no change with or without drug	0.45	-0.17
Fads1 (fatty acid desaturase 1)	1	no change with or without drug	0.79	0.17
Kcnq4 (potassium voltage-gated channel, subfamily Q, member 4)	1	no change with or without drug	-0.67	0
Lrrc1 (leucine rich repeat containing 1)	1	no change with or without drug	-0.9	-1.35
Rpia (ribose 5-phosphate isomerase A)	1	no change with or without drug	0.45	-1.35
Tpsab1 (tryptase alpha/beta 1)	1	no change with or without drug	0.11	0.51
Pyy (peptide YY)	1	no change with or without drug	0.9	-0.51
Znrf1 (zinc and ring finger 1)	1	no change with or without drug	1.01	0.17
Slc35b1	1	no change with or without drug	-1.24	-0.51
Bivm (basic, immunoglobulin-like variable motif containing)	1	no change with or without drug	1.01	0.84
Srek1ip1	1	no change with or without drug	-1.12	-0.84
Mrpl3 (mitochondrial ribosomal protein L3)	1	no change with or without drug	0.45	0.67
SCN9A	1	no change with or without drug	0	-0.51
Rab40c (Rab40C, member RAS oncogene family)	1	no change with or without drug	1.69	1.01
Ccer1 (coiled-coil glutamate-rich protein 1)	1	no change with or without drug	0.34	1.18
Fancd2 (Fanconi anemia, complementation group D2)	1	no change with or without drug	-0.67	1.52
Syt4 (synaptotagmin IV)	1	no change with or without drug	0	0.67
Zfp111 (zinc finger protein 111)	1	no change with or without drug	-1.57	-0.84
Slc6a15	1	no change with or without drug	1.12	1.69
Slc6a15	2	no change with or without drug	0.22	1.18
Lrr1 (leucine rich repeat protein 1)	1	no change with or without drug	-0.79	-1.52
Tnip1 (TNFAIP3 interacting protein 1)	1	no change with or without drug	-0.67	-0.17
Dpp10 (dipeptidylpeptidase 10)	1	no change with or without drug	1.35	-0.17
Gata4 (GATA binding protein 4)	1	no change with or without drug	1.01	-0.84
Hyal5 (hyaluronoglucosaminidase 5)	1	no change with or without drug	-0.67	-0.51
Pdgfa (platelet derived growth factor, alpha)	1	no change with or without drug	-1.46	-1.18
Gabarap (gamma-aminobutyric acid receptor associated protein)	1	no change with or without drug	0	0.84
Klk11 (kallikrein related-peptidase 11)	1	no change with or without drug	-1.24	-0.17
2210408I21Rik (RIKEN cDNA 2210408I21 gene)	1	high cell count with doxorubicin only	2.59	1.35
Sgsm1 (small G protein signaling modulator 1)	1	high cell count without drug only	-0.22	2.53
Tcf3 (transcription factor 3)	1	no change with or without drug	-1.12	-1.52
Atg13 (autophagy related 13)	1	no change with or without drug	0.9	1.52
Ttc1 (tetratricopeptide repeat domain 1)	1	low cell count with doxorubicin only (active)	-3.82	-1.85
Clip2 (CAP-GLY domain containing linker protein 2)	1	no change with or without drug	0.56	0.51
Spock1	1	low cell count with doxorubicin only (active)	-2.92	0.17
Tmem87a (transmembrane protein 87A)	1	no change with or without drug	0.11	0.51
Unc5b (unc-5 netrin receptor B)	1	no change with or without drug	0.45	0.67
Nos1 (nitric oxide synthase 1, neuronal)	1	no change with or without drug	1.12	0.17
Smc4 (structural maintenance of chromosomes 4)	1	no change with or without drug	0.67	1.18
Klhl4 (kelch-like 4)	1	no change with or without drug	0	1.18
Fem1c (fem 1 homolog c)	1	no change with or without drug	-0.67	0.17
Fem1c (fem 1 homolog c)	2	no change with or without drug	0.67	0.51
Sdhd	1	no change with or without drug	-0.45	-1.35
Ccdc43 (coiled-coil domain containing 43)	1	no change with or without drug	0.9	0.34
Hoxb5 (homeobox B5)	1	no change with or without drug	-0.45	-1.18
Sdf2l1 (stromal cell-derived factor 2-like 1)	1	high cell count without drug only	1.35	2.87
Glra1 (glycine receptor, alpha 1 subunit)	1	no change with or without drug	-0.9	-1.52
Pcdh8 (protocadherin 8)	1	no change with or without drug	0.22	0.51
B9d1 (B9 protein domain 1)	1	low cell count with doxorubicin only (active)	-3.04	-0.51
Mknk2 (MAP kinase-interacting serine/threonine kinase 2)	1	high cell count with doxorubicin only	2.14	-0.84
Cdkn2c (cyclin dependent kinase inhibitor 2C)	1	no change with or without drug	-0.11	0
Slc10a6	1	no change with or without drug	0.9	0.84
Pcsk6 (proprotein convertase subtilisin/kexin type 6)	1	no change with or without drug	-0.11	-1.52
Rps3 (ribosomal protein S3)	1	low cell count with doxorubicin only (active)	-4.27	-1.69
Pdzrn3 (PDZ domain containing RING finger 3)	1	low cell count with doxorubicin only (active)	-2.59	-1.52
Lrtm1 (leucine-rich repeats and transmembrane domains 1)	1	no change with or without drug	0.9	0.17
Vps33b (vacuolar protein sorting 33B)	1	no change with or without drug	-1.12	0.67
